Measurements from “University of Dundee, Small-Polar-MMV Screening Library” (2021), ChEMBL document CHEMBL3988442.

By UniProt entry, the sequences of proteins in these tests, tags left out. Residues count along the entry.
UniProt Q4DA54, 1-478: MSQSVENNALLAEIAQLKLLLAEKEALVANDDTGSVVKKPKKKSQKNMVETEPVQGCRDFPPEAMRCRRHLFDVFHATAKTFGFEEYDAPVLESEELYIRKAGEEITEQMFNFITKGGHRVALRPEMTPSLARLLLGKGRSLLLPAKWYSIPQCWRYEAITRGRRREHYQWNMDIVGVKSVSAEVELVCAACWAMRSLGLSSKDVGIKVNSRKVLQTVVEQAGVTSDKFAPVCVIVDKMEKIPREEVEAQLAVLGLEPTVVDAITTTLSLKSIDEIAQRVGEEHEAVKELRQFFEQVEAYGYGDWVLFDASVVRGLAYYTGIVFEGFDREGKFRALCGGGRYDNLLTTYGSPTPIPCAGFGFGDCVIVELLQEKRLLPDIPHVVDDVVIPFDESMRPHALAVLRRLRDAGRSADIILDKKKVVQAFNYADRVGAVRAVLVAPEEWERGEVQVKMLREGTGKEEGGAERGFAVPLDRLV
UniProt P9WPC5, whole entry: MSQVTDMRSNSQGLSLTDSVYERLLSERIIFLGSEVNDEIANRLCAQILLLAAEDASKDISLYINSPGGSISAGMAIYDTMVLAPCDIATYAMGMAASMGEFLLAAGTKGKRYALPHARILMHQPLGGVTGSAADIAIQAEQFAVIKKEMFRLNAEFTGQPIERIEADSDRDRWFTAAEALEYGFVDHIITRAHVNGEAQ
UniProt P9WPC3, whole entry partner: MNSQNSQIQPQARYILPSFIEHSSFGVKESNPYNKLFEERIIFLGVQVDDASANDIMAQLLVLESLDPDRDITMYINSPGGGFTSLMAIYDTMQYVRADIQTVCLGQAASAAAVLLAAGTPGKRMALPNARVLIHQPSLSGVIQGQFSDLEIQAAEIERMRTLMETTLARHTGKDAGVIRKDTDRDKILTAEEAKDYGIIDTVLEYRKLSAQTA

The filed quantity is “Percent Effect” (%).
How 0% and 100% were set is not recorded. Most values in the screen are low, and negative values occur.
Compounds were drawn at random from those tested, without regard to their results.

TcHisRS: 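Histidine-tRNA ligase, Trypanosoma cruzi CL Brener (UniProt Q4DA54). Enzyme assay of histidyl-tRNA synthetase; the read-out is not stated. Tested at 30 µM. The record gives no direction; compounds that gave an IC50 in retests scored well above the rest, so higher reads as stronger inhibition. Size under these conditions: about 69,000 compounds, about 31 of them at 50% or above in at least one test.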
ClpP1P2: 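Protease assay of ClpP1P2, read by the AMC dye that it sets free. Target: ClpP1P2, Mycobacterium tuberculosis (UniProt P9WPC5 and UniProt P9WPC3). Tested at 50 µM. Direction is inferred from only a few compounds that gave an IC50; most scored high, so higher reads as stronger inhibition. Most other retested compounds had strongly negative values. Of about 69,000 compounds tested this way, about 10 (0.015%) reached 50% or more in at least one test.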

| Compound | TcHisRS | ClpP1P2 |
|---|---|---|
| `COCCNC(=O)CN1CCN(c2nc3cc(C)ccc3o2)CC1` | 1.02 | -3.831 |
| `Cc1cc(C)n(CC2CCCN2C(=O)c2cnccn2)n1` (stereo unspecified) | 1.433 | 11.49 |
| `Cn1c(=O)cc(C(=O)NC(Cc2ccsc2)c2cccnc2)[nH]c1=O` (stereo unspecified) | 5.639 | -17.01 |
| `COCCN1CCN(Cc2cccc(OCC(N)=O)c2)CC1C` (stereo unspecified) | 4.906 | -2.651 |
| `CCOCCCNC(=O)CN(c1ccc(F)c(F)c1)S(C)(=O)=O` | -0.5917 | 3.982 |
| `CC(NC(=O)CSCC(N)=O)c1ccccc1Oc1ccccc1` (stereo unspecified) | 1.667 | -5.78 |
| `CCS(=O)(=O)N1CCc2c(CN(C)Cc3ccco3)cncc2C1` | 4.865 | -1.523 |
| `CCCC(C(=O)NCCc1nc(C)cs1)N(C)C` (stereo unspecified) | 8.333 | -0.7128 |
| `Cc1cccc(-c2noc(CN3CCc4nn(C)c(=O)cc4C3)n2)c1` | 6.415 | -1.955 |
| `COc1cc(N2C[C@@H]3COC[C@]3(COc3ncccc3F)C2)ncn1` | 7.563 | 3.597 |
| `O=C(NCCN1CCCC1)c1nc2c(o1)CN(C(=O)c1cccnc1)C2` | 7.843 | 5.33 |
| `CC(CCn1cccn1)NCc1n[nH]c2c1CCCCC2` (stereo unspecified) | 0 | 0.02313 |
| `COCc1ccccc1C(=O)N1CCN(C2=NCC(C)(C)S2)CC1` | 10.34 | -3.063 |
| `COc1ccc(-n2ccc(CNCc3ccc(OC)c(O)c3)n2)cc1` | 6.897 | -6.749 |
| `COCC(=O)N1CC[C@@H]2O[C@@H](COCC3CCOCC3)CC[C@@H]21` | 5.882 | -0.4758 |
| `CS(=O)(=O)CCSc1cccc(C#N)c1` | 1.626 | -7.704 |
| `CCOCCN1CCC=C(C2c3nc[nH]c3CCN2C(C)=O)C1` (stereo unspecified) | 0.8 | -5.703 |
| `CC(=O)Nc1nc(C2CCN(C(=O)c3cncs3)CC2)cs1` | 5.556 | 19.32 |
| `CCC(=O)Nc1cccc(OCC(=O)N2C[C@H]3CC[C@H]2C3)c1` | 7.463 | 0.3324 |
| `Cn1ncc2c1NC(=O)CC2c1ccc(Cl)cc1Cl` (stereo unspecified) | 2.174 | -16.48 |
| `O=C(Nc1ccccc1OC1CCOC1)c1ccon1` (stereo unspecified) | 10.5 | 3.982 |
| `CCCNC(=O)Cn1nc(C)c2cnn(C(C)(C)C)c2c1=O` | 1.02 | 12.17 |
| `CC(C)c1nc(C2CCCN(C(=O)CN3CCCNC3=O)C2)no1` (stereo unspecified) | 2.463 | -18.51 |
| `CCN1C[C@H]2C3(CCN(S(C)(=O)=O)CC3)CC[C@@]2(C(=O)N(C)C)C1` | 0 | -7.872 |
| `O=C(Cc1cccc(F)c1)N1CCN2C[C@H](Oc3cncnc3)C[C@H]2C1` | 8.458 | -20.23 |
| `N#Cc1c(Cl)nsc1N1CCN(CC2CC2)CC1` | 3.415 | -4.951 |
| `CS(=O)(=O)NCC(=O)N1CCCC1c1noc(C2CC2)n1` (stereo unspecified) | 1.245 | -14.93 |
| `CCOC1COC2(CCN(Cc3cccc(F)c3)CC2)C1` (stereo unspecified) | 4.511 | 9.038 |
| `Cc1ncsc1C(=O)NCCNC(=O)Cc1cccc(F)c1` | 4.094 | -14.36 |
| `COCc1cn([C@@H]2c3ccccc3C3(CCNCC3)[C@H]2O)nn1` | 4.878 | -6.308 |
| `CCc1ccc(C2CCCN2C(=O)Cc2ccc(NC(C)=O)cc2)o1` (stereo unspecified) | 13.69 | 5.969 |
| `CC(=O)N1CCCC(Cc2cncc(Br)c2)C1` (stereo unspecified) | 14.44 | -3.52 |
| `CC(C)C(=O)N1CCCN(C(=O)NC2CCc3ccccc3C2)CC1` (stereo unspecified) | 2.793 | -1.037 |
| `CCCn1ncc(C(=O)NC2CCN(C3CCOCC3)CC2)c1C` | 0.6494 | -0.2662 |
| `Cc1cccc(-c2ccc(C(=O)NCC(C)(C)C(N)=O)c(=O)[nH]2)c1` | -3.759 | -22.29 |
| `CCOC1CCN(CCc2nc(-c3cccc(Cl)c3)no2)CC1` | 2.618 | -1.89 |
| `CCc1ncc(CN2CCOC(Cc3cccc(F)c3)C2)cn1` (stereo unspecified) | 3.571 | -7.853 |
| `CC(C)(C)c1n[nH]c(C2CN(CCc3cccs3)CCO2)n1` (stereo unspecified) | 4.274 | -3.842 |
| `N#Cc1cccc(CN2C[C@H](NC(=O)C3CC3)[C@H]3OCCC[C@H]32)c1` | -2.404 | -9.354 |
| `CC(NC1CCCC1)c1ccccc1-n1cccn1` (stereo unspecified) | 3.365 | -0.8111 |
| `CC(C)CNC(=O)c1c(-n2cnnn2)sc2c1CCCC2` | 2.484 | -14.19 |
| `COc1ccccc1Oc1ncccc1CNC(=O)C(C)CN` (stereo unspecified) | 2.116 | 11.15 |